# According to the supplement of paper PMC5949888:
# Most values lie at the floor of the assay. Slopes are relative: functional sequences can read slightly below zero.
# Test system: Saccharomyces cerevisiae PS128 hsf1 delta, HSF1(1-493) fusion
# Assay: growth estimate (transactivation domain function in HSF1 fusion, heat-shock survival) (a.u. (slope of normalised read count over time)); higher = stronger growth at 37°C, i.e. more transactivation activity
# Conditions: library: random library
row,Substance,growth estimate
1,KGLLIRQARTCVWN,< -0.25
2,KGMRPPIFGMSYLHLAVSRV,< -0.25
3,KGNIAQSLIRRHYAK,< -0.25
4,KGNVRNTKNPKY,< -0.25
5,KGPQRNNRGDLPQTNSGGPE,< -0.25
6,KGPVT,< -0.25
7,KGR,< -0.25
8,KGRGSLSPSAQLRLLLLATR,< -0.25
9,KGRNY,< -0.25
10,KGRSETRPFQRMSYSARLHP,< -0.25
11,KGRVSRGRNRGPEATWIQLT,< -0.25
12,KGSAL,< -0.25
13,KGSQP,< -0.25
14,KGVGIIRGMGKVAV,< -0.25
15,KGVLPRTR,< -0.25
16,KGVTLPWLVYAWERSPWDLF,< -0.25
17,KGYATRIIPYGFNS,< -0.25
18,KHADLLTRISGGVHPYLGTV,< -0.25
19,KHAEEWESRGVSVRYS,< -0.25
20,KHATECAHSLYWGYPVYPPI,< -0.25
21,KHCCGLEAGSRCRNPQLSGF,< -0.25
22,KHEKVTLI,< -0.25
23,KHGAQKVQ,< -0.25
24,KHLLPSRPICSPSHLL,-0.246
25,KHRAYQSVGL,< -0.25

row,Substance,growth estimate
1,KHTYRMHVR,-0.248
2,KIARVWVGVAKRLEAQHVIW,< -0.25
3,KICGGKG,-0.229
4,KIDYY,-0.241
5,KIGRIELLGSARRR,-0.245
6,KIHRSEQVKVVQEAFTQDPT,< -0.25
7,KILANV,-0.245
8,KILTEGCVKKAVCHPVRRSL,< -0.25
9,KINLY,< -0.25
10,KINPLRRWRIPNFGGAPGSS,< -0.25
11,KISVSCVYVGTKVGCLVSFQ,< -0.25
12,KIVELEMDLGWI,< -0.253
13,KIWARSRIIGYELALGRANS,< -0.25
14,KKGGLSNPGV,-0.245
15,KKHKHRVELPSHLIAIVATH,< -0.25
16,KKIGE,< -0.25
17,KKLRDTDAGTKKAPMTHYDA,< -0.25
18,KKLTRQQYRGRYSCHEGTIH,< -0.25
19,KKPRRRSHVIVFPGMEGIPA,-0.221
20,KKRGVTNLSLEARQMKRSGR,< -0.25
21,KKSWRGCARPY,< -0.25
22,KLAFQVMG,< -0.25
23,KLAGRGINVLVRR,< -0.25
24,KLERASVRAQDNSVTEATRS,< -0.25
25,KLGCREPSSIQAPYPDVLV,< -0.25

row,Substance,growth estimate
1,KLGKCKIRESCFFFIFPVPG,< -0.25
2,KLGRRAARLRA,-0.194
3,KLHVCNYV,< -0.25
4,KLIRSLGTICELSTNKTFVV,< -0.25
5,KLLRTSELLSLDGYYSKTCE,< -0.25
6,KLNPVEG,< -0.25
7,KLPASCCGRLTVELVVF,< -0.25
8,KLPHP,-0.25
9,KLPLKIDSAGLEEDLYG,< -0.25
10,KLPPNLHCPTNRWSRPKISR,< -0.25
11,KLQLILPLCEVWPFGTVMIA,< -0.25
12,KLRIARESLGTCDRLGRVFR,< -0.25
13,KLRIRRPSLILMT,< -0.25
14,KLT,< -0.25
15,KLTPRGLT,< -0.25
16,KLV,< -0.25
17,KMA,< -0.25
18,KME,< -0.25
19,KMFSVMELEAGICAASHVHC,-0.2
20,KMIAGERY,< -0.25
21,KMPFQTTSVRGVITN,< -0.25
22,KMPWRCVVARRSRSWA,< -0.25
23,KMTYGVCLPTGVIGRCIILR,< -0.25
24,KMVRPSAHQLALAICITALS,< -0.25
25,KNALCLR,< -0.25

row,Substance,growth estimate
1,KNDKLVKSLCAGARSTGILG,< -0.25
2,KNGIVHDRSMRGPP,< -0.25
3,KNGLERRLKSNYPVLLISR,< -0.25
4,KNIRLFERL,< -0.25
5,KNKLRSSKSALSHLVA,< -0.25
6,KNPGFLGTDSRLCRGGNVEG,< -0.25
7,KNRPYRPGISMTAPSYNADL,< -0.25
8,KNSLGCRRHQARGGIIEHRD,< -0.25
9,KPAV,< -0.25
10,KPEGTFEQGKHLDEDSSAGS,< -0.25
11,KPFATYPFHGPSFGIDGNRC,< -0.25
12,KPKSTVSDANRHLIKFIHVP,< -0.25
13,KPLSNV,< -0.25
14,KPNVPRRQMGLGFW,-0.246
15,KPPSIHMGA,< -0.25
16,KPRHE,< -0.25
17,KPTG,< -0.25
18,KPV,< -0.25
19,KPVLEPFVAKPPSAVNTGDQ,-0.229
20,KQEKGVTGCDQQYGISMQTH,< -0.25
21,KQEQHQKFGRELQLELTGLS,< -0.25
22,KQQLRYDSPAL,< -0.25
23,KQSRKVVSASLVWCM,< -0.25
24,KQTYF,< -0.25
25,KRADCYGALTVRRIGCPPPR,< -0.25

row,Substance,growth estimate
1,KRAIGSNDLEISILRSGVLA,< -0.25
2,KRCCLRSFP,< -0.25
3,KRCLRIGRCK,< -0.25
4,KRFMSMARLLYGVSAVVSDR,< -0.25
5,KRGGRQLDSARSLSEFRGPG,< -0.25
6,KRGLRPARDLRGGA,< -0.25
7,KRGRVLVPTLYPGKHAASLV,-0.246
8,KRHRIQTAEDSHAWHTAFVR,< -0.25
9,KRIGWLYNSSGQP,< -0.25
10,KRILEPG,< -0.25
11,KRITVGQTRWLS,< -0.25
12,KRKIWHHSTPSGA,< -0.25
13,KRKNRPAYAATISSE,< -0.25
14,KRLIPGPFSGTACLEASLWV,< -0.25
15,KRLTEFYVGGLS,< -0.25
16,KRNWIIEDGLCSSRRGPGAT,< -0.25
17,KRQNGLEVSVTSHVQCLLRQ,< -0.25
18,KRQTSISGWGANRARRTCGL,< -0.25
19,KRRGIH,< -0.25
20,KRSCFTMEVAGSRAGQSGPI,< -0.25
21,KRSGRG,< -0.25
22,KRSQLLWSVT,< -0.25
23,KRTRLRPRHRVPMCYMETDM,< -0.25
24,KRVRGRNPRGLFGQRFLCMC,< -0.25
25,KRVSQSATLCHRSESSQSLT,< -0.25

row,Substance,growth estimate
1,KSAEKGGVTPVN,< -0.25
2,KSCLVLSGQCIWNAGDPLDS,< -0.25
3,KSEWSWVAPRLVSR,< -0.25
4,KSGIISERLDHSYNHGLCD,< -0.25
5,KSGKELGWIERMQKALSDHG,< -0.25
6,KSIDCKVGLRHDSRTEI,< -0.25
7,KSL,< -0.25
8,KSLID,< -0.25
9,KSLRC,< -0.25
10,KSMEMRSFI,< -0.25
11,KSNRGLQGRTPW,< -0.25
12,KSQGQAYIR,< -0.25
13,KSQNRRHDLM,< -0.25
14,KSRAFD,< -0.25
15,KSRIIGPVDCDRPNEASPTR,< -0.25
16,KSSAWGKPSPLRKRVRTRRR,< -0.25
17,KSSFEFISLGSSLFDIICPL,< -0.25
18,KSSRTVWPPGSL,< -0.25
19,KSVIALHCPGDEREVRISSL,< -0.25
20,KSVLGTPIVLHR,< -0.25
21,KSVSISAKMRGTNCASPLCP,< -0.25
22,KSWARNSRCVYRMDSRNTGT,< -0.25
23,KSWIHSSAEERQGVRDSLWG,< -0.25
24,KSWPSVLGFSRAGHAWA,< -0.25
25,KTAFTPHSK,< -0.25

# Rewritten as tab-separated lines: part of the list above
row	Substance	growth estimate
24	KLERASVRAQDNSVTEATRS	< -0.25
17	KMA	< -0.25
18	KME	< -0.25
7	KNRPYRPGISMTAPSYNADL	< -0.25
1	KRAIGSNDLEISILRSGVLA	< -0.25
7	KSL	< -0.25
8	KSLID	< -0.25

# (list continues)

row,Substance,growth estimate
1,KTCAVSSQVSSCLDPDHQAS,< -0.25
2,KTEACECAGLLPLALLSVLV,< -0.25
3,KTEAVS,< -0.25
4,KTGLLGNYQSLSGVQRAKFT,< -0.25
5,KTIISSRVLASTLGFN,< -0.25
6,KTL,< -0.25
7,KTNALNTKTIRSGRDREPPQ,< -0.25
8,KTNPRPRVTTYGMPMPVGRS,< -0.25
9,KTPDTR,< -0.25
10,KTRGPHFHRP,< -0.25
11,KTSI,< -0.25
12,KTSIFEVCTKPRVSIGWSSL,< -0.25
13,KTTPHFGARIQQALEDSQRR,< -0.25
14,KVCCLQTGCRGIVFHNAQDR,-0.231
15,KVDRTLRGGDREHAYLVRVH,< -0.25
16,KVDSPGDGVVAITTRAPPHG,-0.145
17,KVECHACYPAKRNKIAGIRA,< -0.25
18,KVEPLKLTEGRF,< -0.25
19,KVEYLHRRLHA,< -0.25
20,KVGRRSG,< -0.25
21,KVHLRGYGGPRGY,< -0.25
22,KVHTALWYRVRQSGSYCLTN,< -0.25
23,KVPARPAP,< -0.25
24,KVQASTRLGASQHFKFFLSG,< -0.25
25,KVQQDKFCMTKSNITQYYYV,< -0.25

# A different layout for part of the listing above.
row | Substance | growth estimate
6 | KGPVT | < -0.25
17 | KGYATRIIPYGFNS | < -0.25
4 | KIDYY | -0.241
18 | KKLTRQQYRGRYSCHEGTIH | < -0.25
16 | KPRHE | < -0.25
3 | KSEWSWVAPRLVSR | < -0.25

# Later entries:

row,Substance,growth estimate
1,KVQRFLSLIGGTG,< -0.25
2,KVQVSPVAINNTSVLVLGMM,< -0.25
3,KVRLKKHARGPDACGLLLAK,< -0.25
4,KVRQNTHVRAWRVQPAAGGT,< -0.25
5,KVSSTMVHDSVTLSNIYGYR,< -0.25
6,KVVVGEPPWLTYIKTLREQL,< -0.25
7,KVYRDDANFCPNHAADGVLT,< -0.25
8,KWAHLRILVTYELISHRF,< -0.25
9,KWI,< -0.25
10,KWNFAVRI,< -0.25
11,KWRRGCRKIAKSL,< -0.25
12,KWTSLWTTTSSSSTSWRLHD,6.76
13,KWVSLMVRRRD,< -0.25
14,KYASIPDNVFGRR,0.0805
15,KYDCRRGCLPRSLPDKR,< -0.25
16,KYERLKLGATSFETLGIT,< -0.25
17,KYFLYPREDNGIPLKLSSRN,< -0.25
18,KYIDRL,< -0.25
19,KYLESSQGLSYTVEVRA,< -0.25
20,KYLSKVQ,< -0.25
21,KYPLFVDCLSFVQWSVE,-0.233
22,KYPLSGSFCCTGPVLPGRPV,< -0.25
23,KYRF,< -0.25
24,KYTLARRAGETNYDKAL,< -0.25
25,KYVCSDISGGSYYKRKTLLQ,< -0.25
